The assay concerns the target T1, HA-tagged VPS4A (human) (UniProt Q9UN37).
T1 sequence: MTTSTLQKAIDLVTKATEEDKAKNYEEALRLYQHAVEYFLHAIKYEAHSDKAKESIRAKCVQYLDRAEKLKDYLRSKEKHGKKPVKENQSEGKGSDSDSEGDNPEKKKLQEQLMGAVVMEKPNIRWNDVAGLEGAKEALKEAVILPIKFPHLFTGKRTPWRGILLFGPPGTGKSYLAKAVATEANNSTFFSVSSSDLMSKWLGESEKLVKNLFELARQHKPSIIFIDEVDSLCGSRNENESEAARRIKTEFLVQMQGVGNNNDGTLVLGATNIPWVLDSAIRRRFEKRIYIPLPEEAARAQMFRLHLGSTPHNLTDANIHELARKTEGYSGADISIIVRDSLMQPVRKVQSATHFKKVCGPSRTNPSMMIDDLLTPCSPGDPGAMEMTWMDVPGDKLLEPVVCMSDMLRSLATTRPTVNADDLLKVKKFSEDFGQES
The experiment in a line: co-IP; HEK293T co-transfected for 24 h with FLAG-tagged ZFYVE19 or its variants and HA-tagged partner; cells sonicated in 1× DPBS; lysate on EZview Red Anti-HA Affinity Gel overnight at 4 °C; five washes with 1× TBS; blots with anti-HA and anti-FLAG.

No constants are given. Whether binding was seen depends on the method and setting. Binding seen in cells or lysates may run through a third protein. Binding calls can cover weak binding; strength is not graded here. Where a sequence is shown, tags or fusion partners need not be part of it.

For the substance “FLAG-tagged ZFYVE19 FYVE domain (human) (domain or fragment)”, the binding entry is reported as “no binding”.

With “FLAG-tagged ZFYVE19 MIM1 domain (human) (domain or fragment)”, the binding result is “binds”.

For the origin of these results see article PMC12884770.
